{"source": "PubChem BioAssay AID1224831 (NIAID, 2016)", "purpose": "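Retesting screen hits on the TLR4-driven TNF response with six separate siRNAs each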 (follow-up of hits)", "cell system": "human THP-1 B5 monocytic leukaemia cells carrying a TNF promoter luciferase reporter, made macrophage-like with PMA", "reagent": "single siRNA against human genes, 50 nM", "duration": "about 68 h of knock-down, then 4 h LPS", "conditions": "LPS (Salmonella minnesota, TLR-grade) at 10 ng/ml for 4 h; PMA 5 ng/ml present during knock-down", "measurement": "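Firefly to renilla luciferase ratio of a TNF promoter reporter after 4 h LPS, scaled to plate median, turned into robust z-score, averaged over replicates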", "reading the numbers": "TNF reporter z-score: higher = stronger LPS-induced TNF reporter signal; z-score, median over gene's siRNAs: higher = stronger TNF reporter signal across the gene's siRNAs", "rule for the call": "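Two-sided call: reduced or raised TNF reporter signal counts as active once mean z reaches about -1 or below, or about 1.5 or above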", "meaning of the calls": "active = changed TNF reporter (either direction); inactive = little change", "note": "This is a random part of about 3,500 reagents tested. 731 of them (21%) were called active. 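Active means either lowered or raised reporter signal; the gene-median score did not drive the per-siRNA calls.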 Unmarked entries are inactive. The numbers tell different reagents against one gene apart."}
{"target": "PNPLA7 (patatin like domain 7, lysophospholipase)", "reagent no.": 1, "TNF reporter z-score, replicate mean": "-1.03 (active)", "z-score, median over gene's siRNAs": -0.61}
{"target": "PNPLA7 (patatin like domain 7, lysophospholipase)", "reagent no.": 2, "TNF reporter z-score, replicate mean": -0.42, "z-score, median over gene's siRNAs": -0.61}
{"target": "PNPLA7 (patatin like domain 7, lysophospholipase)", "reagent no.": 3, "TNF reporter z-score, replicate mean": "1.66 (active)", "z-score, median over gene's siRNAs": -0.61}
{"target": "PNPLA7 (patatin like domain 7, lysophospholipase)", "reagent no.": 4, "TNF reporter z-score, replicate mean": -0.8, "z-score, median over gene's siRNAs": -0.61}
{"target": "PNPLA7 (patatin like domain 7, lysophospholipase)", "reagent no.": 5, "TNF reporter z-score, replicate mean": 0.96, "z-score, median over gene's siRNAs": -0.61}
{"target": "PNPLA7 (patatin like domain 7, lysophospholipase)", "reagent no.": 6, "TNF reporter z-score, replicate mean": "-2.02 (active)", "z-score, median over gene's siRNAs": -0.61}
{"target": "MAP3K19 (mitogen-activated protein kinase kinase kinase 19)", "reagent no.": 1, "TNF reporter z-score, replicate mean": -0.97, "z-score, median over gene's siRNAs": -0.265}
{"target": "MAP3K19 (mitogen-activated protein kinase kinase kinase 19)", "reagent no.": 2, "TNF reporter z-score, replicate mean": "1.94 (active)", "z-score, median over gene's siRNAs": -0.265}
{"target": "MAP3K19 (mitogen-activated protein kinase kinase kinase 19)", "reagent no.": 3, "TNF reporter z-score, replicate mean": -0.2, "z-score, median over gene's siRNAs": -0.265}
{"target": "MAP3K19 (mitogen-activated protein kinase kinase kinase 19)", "reagent no.": 4, "TNF reporter z-score, replicate mean": -0.43, "z-score, median over gene's siRNAs": -0.265}
{"target": "MAP3K19 (mitogen-activated protein kinase kinase kinase 19)", "reagent no.": 5, "TNF reporter z-score, replicate mean": 1.17, "z-score, median over gene's siRNAs": -0.265}
{"target": "MAP3K19 (mitogen-activated protein kinase kinase kinase 19)", "reagent no.": 6, "TNF reporter z-score, replicate mean": -0.33, "z-score, median over gene's siRNAs": -0.265}
{"target": "HMGB1P1 (high mobility group box 1 pseudogene 1)", "reagent no.": 1, "TNF reporter z-score, replicate mean": 0.71, "z-score, median over gene's siRNAs": 0.475}
{"target": "HMGB1P1 (high mobility group box 1 pseudogene 1)", "reagent no.": 2, "TNF reporter z-score, replicate mean": 0.52, "z-score, median over gene's siRNAs": 0.475}
{"target": "HMGB1P1 (high mobility group box 1 pseudogene 1)", "reagent no.": 3, "TNF reporter z-score, replicate mean": 0.44, "z-score, median over gene's siRNAs": 0.475}
{"target": "HMGB1P1 (high mobility group box 1 pseudogene 1)", "reagent no.": 4, "TNF reporter z-score, replicate mean": -0.29, "z-score, median over gene's siRNAs": 0.475}
{"target": "HMGB1P1 (high mobility group box 1 pseudogene 1)", "reagent no.": 5, "TNF reporter z-score, replicate mean": -0.49, "z-score, median over gene's siRNAs": 0.475}
{"target": "HMGB1P1 (high mobility group box 1 pseudogene 1)", "reagent no.": 6, "TNF reporter z-score, replicate mean": 0.51, "z-score, median over gene's siRNAs": 0.475}
{"target": "SOX15 (SRY-box transcription factor 15)", "reagent no.": 1, "TNF reporter z-score, replicate mean": "1.55 (active)", "z-score, median over gene's siRNAs": 0.055}
{"target": "SOX15 (SRY-box transcription factor 15)", "reagent no.": 2, "TNF reporter z-score, replicate mean": "-1.1 (active)", "z-score, median over gene's siRNAs": 0.055}
{"target": "SOX15 (SRY-box transcription factor 15)", "reagent no.": 3, "TNF reporter z-score, replicate mean": 0.04, "z-score, median over gene's siRNAs": 0.055}
{"target": "SOX15 (SRY-box transcription factor 15)", "reagent no.": 4, "TNF reporter z-score, replicate mean": -0.31, "z-score, median over gene's siRNAs": 0.055}
{"target": "SOX15 (SRY-box transcription factor 15)", "reagent no.": 5, "TNF reporter z-score, replicate mean": 0.07, "z-score, median over gene's siRNAs": 0.055}
{"target": "SOX15 (SRY-box transcription factor 15)", "reagent no.": 6, "TNF reporter z-score, replicate mean": "1.59 (active)", "z-score, median over gene's siRNAs": 0.055}
{"target": "RERE (arginine-glutamic acid dipeptide repeats)", "reagent no.": 1, "TNF reporter z-score, replicate mean": 1.08, "z-score, median over gene's siRNAs": 0.22}
{"target": "RERE (arginine-glutamic acid dipeptide repeats)", "reagent no.": 2, "TNF reporter z-score, replicate mean": -0.64, "z-score, median over gene's siRNAs": 0.22}
{"target": "RERE (arginine-glutamic acid dipeptide repeats)", "reagent no.": 3, "TNF reporter z-score, replicate mean": 1.32, "z-score, median over gene's siRNAs": 0.22}
{"target": "RERE (arginine-glutamic acid dipeptide repeats)", "reagent no.": 4, "TNF reporter z-score, replicate mean": "-1.85 (active)", "z-score, median over gene's siRNAs": 0.22}
{"target": "RERE (arginine-glutamic acid dipeptide repeats)", "reagent no.": 5, "TNF reporter z-score, replicate mean": 1.35, "z-score, median over gene's siRNAs": 0.22}
{"target": "RERE (arginine-glutamic acid dipeptide repeats)", "reagent no.": 6, "TNF reporter z-score, replicate mean": -0.83, "z-score, median over gene's siRNAs": 0.22}

5 consecutive records already listed, quoted:
{"target": "MAP3K19 (mitogen-activated protein kinase kinase kinase 19)", "reagent no.": 6, "TNF reporter z-score, replicate mean": -0.33, "z-score, median over gene's siRNAs": -0.265}
{"target": "HMGB1P1 (high mobility group box 1 pseudogene 1)", "reagent no.": 1, "TNF reporter z-score, replicate mean": 0.71, "z-score, median over gene's siRNAs": 0.475}
{"target": "HMGB1P1 (high mobility group box 1 pseudogene 1)", "reagent no.": 2, "TNF reporter z-score, replicate mean": 0.52, "z-score, median over gene's siRNAs": 0.475}
{"target": "HMGB1P1 (high mobility group box 1 pseudogene 1)", "reagent no.": 3, "TNF reporter z-score, replicate mean": 0.44, "z-score, median over gene's siRNAs": 0.475}
{"target": "HMGB1P1 (high mobility group box 1 pseudogene 1)", "reagent no.": 4, "TNF reporter z-score, replicate mean": -0.29, "z-score, median over gene's siRNAs": 0.475}
